The list shows only some results of the screen, not a fair sample: it gathers tests that were run many times, whatever their T/C, doses with no T/C, and many T/C values between a quarter and a half above the control. Other doses and runs of a compound stand elsewhere. T/C gives the treated animals as a percentage of the vehicle group. Some entries give survivors of the animals treated and no T/C: the source files T/C as zero there, which appears to mark a toxic dose or a test without result, not a measured value. Some survivor counts are full or nearly so, which does not show that the dose was tolerated: the source hardly ever lists a survival T/C far under the control, and the zero likely stands for such cases as well. Survivors were counted at the toxicity check, usually on the fifth day, unless a day is given; later deaths do not show. Schedules are NCI's codes, taken here to give the interval after Q, in days (D) or hours (H), and the number of doses after X. Some molecules as drawn cover several salts, stereoisomers or complexes of the source; a dose is that of the sample tested. For survival time, the PubChem record calls one and a half times the control and up active, and a quarter to a half above the control has no call in these data; cut-offs in other NCI protocols can differ.
Tested on: CD2F1 mice, L1210 leukemia ip, survival T/C
Test: NCI In Vivo Anticancer Drug Screen. Data for tumor model L1210 Leukemia (intraperitoneal) in CD2F1 (CDF1) mice
Details: higher T/C = longer survival
How it was run: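 Each value reflects a quotient of treated over vehicle control outcomes in mice with a transplanted tumor.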

[1] = T/C endpoint: mean survival time, dose: 300.0 mg/kg/injection, schedule: Q01DX001 (ip), vehicle: saline
[2] = T/C endpoint: mean survival time, dose: 50.0 mg/kg/injection, schedule: Q01DX009 (ip), vehicle: saline with Tween-80
[3] = T/C endpoint: mean survival time, dose: 200.0 mg/kg/injection, schedule: Q01DX005 (ip), vehicle: other
[4] = T/C endpoint: mean survival time, dose: 200.0 mg/kg/injection, schedule: Q04DX002 (ip), vehicle: saline with Tween-80
[5] = T/C endpoint: mean survival time, dose: 400.0 mg/kg/injection, schedule: Q01DX001 (ip), vehicle: saline with Tween-80
[6] = T/C endpoint: mean survival time, dose: 400.0 mg/kg/injection, schedule: Q04DX003 (ip), vehicle: saline with Tween-80
[7] = T/C endpoint: mean survival time, dose: 100.0 mg/kg/injection, schedule: Q04DX003 (ip), vehicle: saline with Tween-80
[8] = T/C endpoint: mean survival time, dose: 400.0 mg/kg/injection, schedule: Q01DX009 (ip), vehicle: saline with Tween-80

## Cc1ccc2c(c1)nc1c3ccccc3nnn21
[1]
  survivor count: 3 of 6

## C=CCc1ccc(OC(=O)Nc2ccc(C)c([N+](=O)[O-])c2)c(OC)c1
[2]
  survivor count: 3 of 3
T/C endpoint: mean survival time, dose: 100.0 mg/kg/injection, schedule: Q01DX009 (ip), vehicle: saline with Tween-80
  survivor count: 3 of 3

## Cc1cc[n+](C)c(-c2ccccc2)c1
T/C endpoint: mean survival time, dose: 100.0 mg/kg/injection, schedule: Q01DX009 (ip), vehicle: saline
  survivor count: 0 of 6
T/C endpoint: mean survival time, dose: 200.0 mg/kg/injection, schedule: Q01DX009 (ip), vehicle: saline
  survivor count: 0 of 6
T/C endpoint: mean survival time, dose: 400.0 mg/kg/injection, schedule: Q01DX009 (ip), vehicle: saline
  survivor count: 0 of 6

## COC1=CC=C2[C@@H]3Cc4ccc(OC)c5c4[C@]2(CCN3CCCl)C1O5 (stereo not given in full)
T/C endpoint: mean survival time, dose: 200.0 mg/kg/injection, schedule: Q04DX003 (ip), vehicle: DMSO
  survivor count: 1 of 6
T/C endpoint: mean survival time, dose: 400.0 mg/kg/injection, schedule: Q04DX003 (ip), vehicle: DMSO
  survivor count: 0 of 6

## O=P(Nc1ccccc1)(OCc1ccccc1)N(CCCl)CCCl (stereo not given)
T/C endpoint: mean survival time, dose: 500.0 mg/kg/injection, schedule: Q01DX010 (ip), vehicle: saline
  survivor count: 0 of 6

## CCOC(=O)CN1C(=O)NC(c2ccccc2)(c2ccccc2)C1=O
T/C endpoint: mean survival time, dose: 200.0 mg/kg/injection, schedule: Q01DX009 (ip), vehicle: saline with Tween-80
  survivor count: 5 of 6

## CCCCCCC[CH2][Sn]1([CH2]CCCCCCC)[O]C2C(CO)OC(n3ccc(N)nc3=O)C2[O]1 (stereo not given)
[3]
  survivor count: 0 of 6

## CN1C(=O)CN=C(c2ccccc2)c2cc(Cl)ccc21
T/C endpoint: mean survival time, dose: 100.0 mg/kg/injection, schedule: Q01DX009 (ip), vehicle: Klucel (hydroxypropylcellulose) (HPC)
  survivor count: 3 of 3

## CC(=O)C(CN(C)C)c1ccccc1 (stereo not given)
T/C endpoint: mean survival time, dose: 400.0 mg/kg/injection, schedule: Q04DX003 (ip), vehicle: saline
  survivor count: 2 of 6

## C=C(C)C1(Cc2ccccc2)C(=O)NC(=O)NC1=O
T/C endpoint: mean survival time, dose: 80.0 mg/kg/injection, schedule: Q01DX001 (ip), vehicle: saline
  survivor count: 3 of 6

## O=C(/C=C(\Br)c1ccccc1)c1ccccc1
[4]
  survivor count: 3 of 3
T/C endpoint: mean survival time, dose: 400.0 mg/kg/injection, schedule: Q04DX002 (ip), vehicle: saline with Tween-80
  survivor count: 2 of 3

## C[C@H]1CP(c2ccccc2)(c2ccccc2)(c2ccccc2)O[C@@]1(C(=O)c1ccccc1)c1ccccc1
T/C endpoint: mean survival time, dose: 100.0 mg/kg/injection, schedule: Q01DX001 (ip), vehicle: saline with Tween-80
  survivor count: 3 of 6
[5]
  survivor count: 0 of 6

## CCC(C)(C)c1ccc(O)cc1
[6]
  survivor count: 6 of 6

## C=CCON
T/C endpoint: mean survival time, dose: 150.0 mg/kg/injection, schedule: Q01DX001 (ip), vehicle: saline
  survivor count: 0 of 6
[1]
  survivor count: 0 of 6

## O=C(Nc1ccc(C2=NCCN2)cc1)c1ccc(NC(=O)c2ccc(C3=NCCN3)cc2)cc1
T/C endpoint: median survival time, dose: 15.0 mg/kg/injection, schedule: Q01DX009 (ip), vehicle: saline
  T/C: 133 % of control
T/C endpoint: median survival time, dose: 120.0 mg/kg/injection, schedule: Q01DX009 (ip), vehicle: saline
  T/C: 138 % of control

## CC(C)OC(=O)CCl
[5]
  survivor count: 1 of 3

## CC(C)=CC1C(C(=O)OCc2ccc(C)cc2C)C1(C)C (stereo not given)
T/C endpoint: mean survival time, dose: 200.0 mg/kg/injection, schedule: Q01DX001 (ip), vehicle: saline
  survivor count: 6 of 6

## CCCCCCCCCOc1ccc(Cl)cc1
[4]
  survivor count: 3 of 3

## CC(=O)Nc1cccc(C)n1
[1]
  survivor count: 2 of 6

## COc1cc(N=C(N)N=C(N)N)c2ncccc2c1
T/C endpoint: mean survival time, dose: 400.0 mg/kg/injection, schedule: Q04DX002 (ip), vehicle: saline
  survivor count: 0 of 3

## O=C1C=CC(=CC=C2C=CN(CCCCCCCCCCCO)C=C2)C=C1
T/C endpoint: median survival time, dose: 6.25 mg/kg/injection, schedule: Q01DX005 (ip), vehicle: saline with Tween-80
  T/C: 127 % of control
T/C endpoint: median survival time, dose: 28.93 mg/kg/injection, schedule: Q01DX005 (ip), vehicle: saline with Tween-80
  T/C: 125 % of control

## C=C1C(=O)OC2CC(C)C3C(O)C(O)C(O)C3(C)CC12 (stereo not given)
[6]
  survivor count: 3 of 6

## NS(=O)(=O)c1cc(Cl)cc(Cl)c1O
[7]
  survivor count: 6 of 6

## c1ccc2sc(SSN3CC4CCC(CC4)C3)nc2c1
[8]
  survivor count: 2 of 6

## Cc1cccc(Cl)c1NC(=O)Nc1cc(Cl)ccc1Oc1c(Cl)cc(Cl)cc1S(=O)(=O)O
[8]
  survivor count: 0 of 6

## CCOC(=O)c1ccc2c(c1)Cc1cc(N)ccc1-2
T/C endpoint: mean survival time, dose: 400.0 mg/kg/injection, schedule: Q01DX001 (ip), vehicle: carboxymethylcellulose (CMC)
  survivor count: 2 of 4

## O/N=C/C1CCCC[N-]1.O/N=C/C1CCCC[N-]1.O/N=C/C1CCCC[N-]1.[Cu] (stereo not given)
T/C endpoint: median survival time, dose: 6.0 mg/kg/injection, schedule: Q03HX024 (ip), vehicle: saline
  T/C: 141 % of control
T/C endpoint: median survival time, dose: 10.0 mg/kg/injection, schedule: Q03HX024 (ip), vehicle: saline
  survivor count: 4 of 10

## C=C1C(=O)OC(CCCCCCCCCCCCC)C1C(=O)O (stereo not given)
T/C endpoint: mean survival time, dose: 80.0 mg/kg/injection, schedule: Q04DX002 (ip), vehicle: saline with Tween-80
  survivor count: 0 of 3
T/C endpoint: mean survival time, dose: 160.0 mg/kg/injection, schedule: Q04DX002 (ip), vehicle: saline with Tween-80
  survivor count: 0 of 3

## S=C1NC(c2ccccc2)Nc2ccccc21 (stereo not given)
[6]
  survivor count: 5 of 6

## Nc1ncnc2c1c(CO)cn2C1OC(CO)C(O)C1O (stereo not given)
T/C endpoint: mean survival time, dose: 200.0 mg/kg/injection, schedule: Q01DX005 (ip), vehicle: distilled water + Tween-80
  survivor count: 0 of 3
T/C endpoint: mean survival time, dose: 400.0 mg/kg/injection, schedule: Q01DX005 (ip), vehicle: distilled water + Tween-80
  survivor count: 0 of 3

## CN(CC#N)N=Nc1ccc(C(N)=O)cc1
T/C endpoint: mean survival time, dose: 75.0 mg/kg/injection, schedule: Q01DX009 (ip), vehicle: Klucel (hydroxypropylcellulose) (HPC)
  survivor count: 3 of 6
T/C endpoint: mean survival time, dose: 150.0 mg/kg/injection, schedule: Q01DX009 (ip), vehicle: Klucel (hydroxypropylcellulose) (HPC)
  survivor count: 0 of 6
T/C endpoint: mean survival time, dose: 300.0 mg/kg/injection, schedule: Q01DX009 (ip), vehicle: Klucel (hydroxypropylcellulose) (HPC)
  survivor count: 0 of 6

## CCOC(=O)Nc1cc2c(c(N)n1)N=C(CCc1ccccc1)CN2
T/C endpoint: mean survival time, dose: 100.0 mg/kg/injection, schedule: Q01DX001 (ip), vehicle: Klucel (hydroxypropylcellulose) (HPC)
  T/C: 129 % of control
T/C endpoint: mean survival time, dose: 400.0 mg/kg/injection, schedule: Q01DX001 (ip), vehicle: Klucel (hydroxypropylcellulose) (HPC)
  survivor count: 1 of 5

## CCC(CC)(C[NH-])C[NH-].[Cl][Pt+2][Cl]
[7]
  survivor count: 6 of 6
T/C endpoint: mean survival time, dose: 200.0 mg/kg/injection, schedule: Q04DX003 (ip), vehicle: saline with Tween-80
  survivor count: 1 of 6

## CCC[CH2][Sn]1([CH2]CCC)[O]CC2OC(n3cc(C)c(=O)[nH]c3=O)CC2[O]1 (stereo not given)
T/C endpoint: mean survival time, dose: 6.25 mg/kg/injection, schedule: Q01DX005 (ip), vehicle: other
  survivor count: 3 of 6
T/C endpoint: mean survival time, dose: 12.5 mg/kg/injection, schedule: Q01DX005 (ip), vehicle: other
  survivor count: 0 of 6
T/C endpoint: mean survival time, dose: 25.0 mg/kg/injection, schedule: Q01DX005 (ip), vehicle: other
  survivor count: 0 of 6
T/C endpoint: mean survival time, dose: 50.0 mg/kg/injection, schedule: Q01DX005 (ip), vehicle: other
  survivor count: 0 of 6
T/C endpoint: mean survival time, dose: 100.0 mg/kg/injection, schedule: Q01DX005 (ip), vehicle: other
  survivor count: 0 of 6
[3]
  survivor count: 0 of 6

## O=C(O)c1[nH]c(=O)[nH]c(=O)c1F
T/C endpoint: mean survival time, dose: 2.5 mg/kg/injection, schedule: Q01DX009 (ip), vehicle: Klucel (hydroxypropylcellulose) (HPC)
  T/C: 138 % of control
T/C endpoint: mean survival time, dose: 2.5 mg/kg/injection, schedule: Q01DX009 (ip), vehicle: saline
  T/C: 146 % of control
T/C endpoint: mean survival time, dose: 5.0 mg/kg/injection, schedule: Q01DX009 (ip), vehicle: Klucel (hydroxypropylcellulose) (HPC)
  T/C: 130 % of control
T/C endpoint: mean survival time, dose: 5.0 mg/kg/injection, schedule: Q01DX009 (ip), vehicle: saline
  T/C: 143 % of control
T/C endpoint: mean survival time, dose: 10.0 mg/kg/injection, schedule: Q01DX009 (ip), vehicle: Klucel (hydroxypropylcellulose) (HPC)
  T/C: 135 % of control
T/C endpoint: mean survival time, dose: 10.0 mg/kg/injection, schedule: Q03DX003 (ip), vehicle: Klucel (hydroxypropylcellulose) (HPC)
  T/C: 130 % of control

## O=c1[nH]cnc2[nH]ncc12
[8]
  survivor count: 1 of 6
T/C endpoint: median survival time, dose: 400.0 mg/kg/injection, schedule: Q01DX009 (ip), vehicle: suspension in saline
  survivor count: 0 of 6

## O=C1/C(=N/O)Cc2ccccc21
T/C endpoint: mean survival time, dose: 25.0 mg/kg/injection, schedule: Q01DX009 (ip), vehicle: saline with Tween-80
  survivor count: 3 of 6
[2]
  survivor count: 0 of 6

From PubChem BioAssay AID256 (DTP/NCI, 2004)
